Measurements reported in PubChem BioAssay AID1224830 (NIAID, 2016)

- Assay: 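Regulators of TLR4 signalling towards TNF-alpha in macrophage-like cells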 (primary screen)
- System: human THP-1 monocytic leukaemia cells, TNF dual-luciferase reporter clone, PMA-differentiated to macrophage-like cells
- Reagents: siRNA pool against human genes, 50 nM
- Timing: LPS for 4 h, given about 3 days after siRNA transfection
- Conditions: bacterial LPS (TLR4 ligand), 10 ng/ml
- Detection: 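TNF firefly reporter luminescence divided by renilla, normalised to the plate median, then turned into a robust z-score for each replicate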
- Direction: TNF reporter robust z-score: higher = stronger TNF reporter response to LPS
- Rule for the call: 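a well is active when its z-score exceeds 2.8 or falls below -1.5; control wells carry no call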
This is a random part of about 18,000 deposited reagents. About 2,900 of all reagents (16%) were called active. 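Calls are made per well; low scores hint the gene aids the LPS response, high scores that it dampens it.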 Repeated entries: four replicate wells of each siRNA pool.

How did the screen score FAM167A?
TNF reporter robust z-score: -0.2; Call: inactive

Which result is listed for FAM167A?
TNF reporter robust z-score: 0.39; Call: inactive

With FAM167A, what was measured?
TNF reporter robust z-score: -0.61; Call: inactive

How did the screen score FAM167A?
TNF reporter robust z-score: -0.67; Call: inactive

What did the screen give for BSDC1?
TNF reporter robust z-score: 0.26; Call: inactive

With BSDC1, what does the deposit list?
TNF reporter robust z-score: 0.31; Call: inactive

For BSDC1, how do the results read?
TNF reporter robust z-score: 1.22; Call: inactive

What is on record for BSDC1?
TNF reporter robust z-score: 0.57; Call: inactive

For KL, what does the deposit list?
TNF reporter robust z-score: -1.01; Call: inactive

How did the screen score KL?
TNF reporter robust z-score: 0.17; Call: inactive

Which result is listed for KL?
TNF reporter robust z-score: -0.83; Call: inactive

What did the screen give for KL?
TNF reporter robust z-score: 0.06; Call: inactive

Which result is listed for PLEKHH2?
TNF reporter robust z-score: -0.79; Call: inactive

What did the screen give for PLEKHH2?
TNF reporter robust z-score: -1.32; Call: inactive

Which result is listed for PLEKHH2?
TNF reporter robust z-score: 0.08; Call: inactive

How did the screen score PLEKHH2?
TNF reporter robust z-score: 0.41; Call: inactive

With GPHA2, what does the deposit list?
TNF reporter robust z-score: -0.97; Call: inactive

Which result is listed for GPHA2?
TNF reporter robust z-score: 0.18; Call: inactive

With GPHA2, how do the results read?
TNF reporter robust z-score: -0.2; Call: inactive

With GPHA2, what does the deposit list?
TNF reporter robust z-score: -0.02; Call: inactive

How did the screen score PPM1F?
TNF reporter robust z-score: -0.97; Call: inactive

What is on record for PPM1F?
TNF reporter robust z-score: -0.02; Call: inactive

With PPM1F, what was measured?
TNF reporter robust z-score: 0.76; Call: inactive

For PPM1F, what was measured?
TNF reporter robust z-score: 1.33; Call: inactive

For ASNSD1, what does the deposit list?
TNF reporter robust z-score: 1.05; Call: inactive

For ASNSD1, what was measured?
TNF reporter robust z-score: 2.01; Call: inactive

With ASNSD1, how do the results read?
TNF reporter robust z-score: 0.62; Call: inactive

What did the screen give for ASNSD1?
TNF reporter robust z-score: 1.49; Call: inactive

For GAS2L2, what was measured?
TNF reporter robust z-score: -0.4; Call: inactive

For GAS2L2, what does the deposit list?
TNF reporter robust z-score: 0.42; Call: inactive

With GAS2L2, how do the results read?
TNF reporter robust z-score: -0.61; Call: inactive

Which result is listed for GAS2L2?
TNF reporter robust z-score: 0.68; Call: inactive
